{"source": "patent US9238821B2", "about": "“Metabolic engineering for plant disease resistance” (The Samuel Roberts Noble Foundation, Inc., priority 2009, dated 2016)", "test_system": "P. omnivora", "assay": "Fungal inhibition assay against P. omnivora on PDA medium", "assay_type": "cell-based, Phymatotrichopsis omnivora", "conditions": "0.1 mM and 0.5 mM", "note": "For at least one compound, name, drawing or mass did not settle the structure.", "data": [{"smiles": "COc1ccc(-c2coc3cc(O)ccc3c2=O)cc1", "note": "[formononetin, reference compound]", "values": [{"measurement": "in vitro growth inhibitory activity against P. omnivora (in words)", "result": "no antifungal activity"}]}]}
